In the data set the test system is human LDL. Description: Drug loading into human LDL with or without insect lipid transfer protein (iLTP). The conditions noted are these: for Drug loading into human LDL, No LTP: incubated 4 hrs at 37° C. in the absence of iLTP; for Drug loading into human LDL, LTP added: incubated 4 hrs at 37° C. in the presence of purified iLTP. As for the experimental part: iLTP was isolated and purified according following the previously published protocol [Ryan, J. Lipid Res., 31:1725-739 (1990); Liu and Ryan, Biochim Biophys. Acta, 1085:112-118 (1991)].
A typical experiment involved dissolving the drug in an appropriate solvent. After the removal of the solvent under nitrogen, a small quantity of wetting agent was added. An appropriate amount of LDL was then added, based on optimum drug: LDL ratio (for example, 1:1 for Dox) to enhance drug entrapment into LDL. The mixtures were then incubated for 4 hrs at 37° C. in the absence or presence of purified iLTP (typically 20-30 mg of iLTP protein/mg of LDL). After incubation, the mixtures were centrifuged at a density in which the LDL/drug complex floated to the top of the centrifuge tube, while the unbound drug and iLTP remained at the bottom of the tube. The LDL/drug fractions were collected and dialyzed to remove any trace of free drugs remaining. The cholesterol was assayed enzymatically using a commercially available kit (Sigma Chemical Company). The amount of drug associated with LDL was determined by HPLC for Dox, CI, mp-TdR, do-IUdR, by gamma counter for the radiolabeled ^1251-CI, or by liquid scintillation counting for ^3H-mp-TdR.

Each structure is given as a SMILES string.

`CCC(Cc1c(I)cc(I)c(N)c1I)C(=O)O[C@H]1CC[C@@]2(C)C(=CC[C@H]3[C@@H]4CC[C@H]([C@H](C)CCCC(C)C)[C@@]4(C)CC[C@@H]32)C1` (some centres unmarked) [CI, cholesteryl iopanoate]: the “Drug loading into human LDL, No LTP” value was determined as 36.7 mole drug/mole LDL and the “Drug loading into human LDL, LTP added” value came out at 143.4 mole drug/mole LDL.
The matching figures for `COc1cccc2c1C(=O)c1c(O)c3c(c(O)c1C2=O)C[C@@](O)(C(=O)CO)C[C@@H]3O[C@H]1C[C@H](N)[C@H](O)[C@H](C)O1` [DOX, Doxorubicin]: 11.9 mole drug/mole LDL and 54 mole drug/mole LDL.
Take `CCCCCCCCCCCCCCCC(=O)C(O)[C@H]1O[C@@H](n2cc(I)c(=O)[nH]c2=O)C[C@@]1(O)C(=O)CCCCCCCCCCCCCCC` (some centres unmarked) [dp-IudR, 3′,5′-dipalmitoyl-5-iodo-deoxyuridine]: the “Drug loading into human LDL, No LTP” value stood at 100 mole drug/mole LDL and the “Drug loading into human LDL, LTP added” value is recorded as 425 mole drug/mole LDL.
Take `[3H]Cc1cn(C2CC(OC(=O)CCCCCCCCCCCCCCC)C(CO)O2)c(=O)[nH]c1=O` (centres unmarked) [mp-TdR, 3′-palmitoyl-[methyl-^3H]-2′-deoxythymidine]: the “Drug loading into human LDL, No LTP” value is 85 mole drug/mole LDL and the “Drug loading into human LDL, LTP added” value was 238 mole drug/mole LDL.

(Values after US20030194372A1, “Radioimaging probes and the use thereof” (priority 2000, published 2003).)
